According to PMC10082800:
No constants are given. Whether binding was seen depends on the method and setting. Binding seen in cells or lysates may run through a third protein. Here binding means that the protein was enriched with, or labelled near, the bait; the list need not be complete.

Protein sequences, listed by entry. Tags and fused reporters are not part of them.
UniProt P51617: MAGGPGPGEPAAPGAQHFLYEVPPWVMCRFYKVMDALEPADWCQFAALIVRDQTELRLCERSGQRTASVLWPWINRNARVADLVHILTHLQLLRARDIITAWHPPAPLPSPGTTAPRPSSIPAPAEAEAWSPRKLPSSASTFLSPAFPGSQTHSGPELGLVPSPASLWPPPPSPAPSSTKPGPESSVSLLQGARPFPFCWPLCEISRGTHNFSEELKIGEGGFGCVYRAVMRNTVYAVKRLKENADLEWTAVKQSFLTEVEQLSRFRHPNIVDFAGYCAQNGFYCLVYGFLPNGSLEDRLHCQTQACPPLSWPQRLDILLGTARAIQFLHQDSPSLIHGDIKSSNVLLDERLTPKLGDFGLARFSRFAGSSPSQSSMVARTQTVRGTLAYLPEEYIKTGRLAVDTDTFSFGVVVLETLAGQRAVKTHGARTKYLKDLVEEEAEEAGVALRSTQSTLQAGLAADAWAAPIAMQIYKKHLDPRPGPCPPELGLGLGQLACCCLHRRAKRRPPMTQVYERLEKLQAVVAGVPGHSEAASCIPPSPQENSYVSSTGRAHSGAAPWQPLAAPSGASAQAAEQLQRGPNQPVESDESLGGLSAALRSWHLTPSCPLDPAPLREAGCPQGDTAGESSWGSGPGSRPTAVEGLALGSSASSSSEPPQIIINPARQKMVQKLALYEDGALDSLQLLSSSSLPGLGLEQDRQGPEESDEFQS

B1: Peroxiredoxin 1 (PRDX1), endogenous (protein, UniProt Q06830 1-199)
chain: MSSGNAKIGHPAPNFKATAVMPDGQFKDISLSDYKGKYVVFFFYPLDFTFVCPTEIIAFSDRAEEFKKLNCQVIGASVDSHFCHLAWVNTPKKQGGLGPMNIPLVSDPKRTIAQDYGVLKADEGISFRGLFIIDDKGILRQITVNDLPVGRSVDETLRLVQAFQFTDKHGEVCPAGWKPGSDTIKPDVQKSKEYFSKQK
B2: E3 ubiquitin ligase HECTD3, endogenous (protein, UniProt Q5T447 1-861)
chain: MAGPGPGAVLESPRQLLGRVRFLAEAARSLRAGRPLPAALAFVPREVLYKLYKDPAGPSRVLLPVWEAEGLGLRVGAAGPAPGTGSGPLRAARDSIELRRGACVRTTGEELCNGHGLWVKLTKEQLAEHLGDCGLQEGWLLVCRPAEGGARLVPIDTPNHLQRQQQLFGVDYRPVLRWEQVVDLTYSHRLGSRPQPAEAYAEAVQRLLYVPPTWTYECDEDLIHFLYDHLGKEDENLGSVKQYVESIDVSSYTEEFNVSCLTDSNADTYWESDGSQCQHWVRLTMKKGTIVKKLLLTVDTTDDNFMPKRVVVYGGEGDNLKKLSDVSIDETLIGDVCVLEDMTVHLPIIEIRIVECRDDGIDVRLRGVKIKSSRQRELGLNADLFQPTSLVRYPRLEGTDPEVLYRRAVLLQRFIKILDSVLHHLVPAWDHTLGTFSEIKQVKQFLLLSRQRPGLVAQCLRDSESSKPSFMPRLYINRRLAMEHRACPSRDPACKNAVFTQVYEGLKPSDKYEKPLDYRWPMRYDQWWECKFIAEGIIDQGGGFRDSLADMSEELCPSSADTPVPLPFFVRTANQGNGTGEARDMYVPNPSCRDFAKYEWIGQLMGAALRGKEFLVLALPGFVWKQLSGEEVSWSKDFPAVDSVLVKLLEVMEGMDKETFEFKFGKELTFTTVLSDQQVVELIPGGAGIVVGYGDRSRFIQLVQKARLEESKEQVAAMQAGLLKVVPQAVLDLLTWQELEKKVCGDPEVTVDALRKLTRFEDFEPSDSRVQYFWEALNNFTNEDRSRFLRFVTGRSRLPARIYIYPDKLGYETTDALPESSTCSSTLFLPHYASAKVCEEKLRYAAYNCVAIDTDMSPWEE

Biological target: Interleukin-1 receptor associated kinase 1 (IRAK1), endogenous (human (endogenous in U251)) (UniProt P51617)
Assay: affinity purification with mass spectrometry; immunoprecipitates by anti-IRAK1 and IgG control antibodies from lysate of U251 cells pretreated with MG132 (10 uM, 4 h); LC-MS/MS (Q Exactive, MASCOT)

Binder	binding
B1	binds
B2	binds
